# Source: patent US20220242863A1, “COMPOUNDS FOR TREATMENT OF EYE DISORDERS” (SINOPSEE THERAPEUTICS, priority 2019, published 2022)
# Some of these results come from one statement about several compounds together.
# Tested on: BA/F3 cells expressing PDGFR
# Test: Cell viability by MTS assay (MTS Assay 1)
# Format: cell-based
# Details: FIGS. 2 and 3; Ba/F3 cells expressing PDGFR (Examples 1 to 4) or FIt3 (Examples 5 to 7)
# Protocol: The effect of the compounds on cell viability were determined using MTS assay. MTS Cell Proliferation Assay Kit is a colorimetric method for sensitive quantification of viable cells in proliferation and cytotoxicity assay. The method is based on the reduction of MTS tetrazolium compound by viable cells to generate a colored formazan product that is soluble in cell culture media. BA/F3 cells expressing the receptor tyrosine kinase (either PDGFR [MTS Assay 1] or FIt3 [MTS Assay 2]) were cultured in standard culture conditions in a 96-well microtiter plate (final volume of 200 μl/well) in the absence or presence of the compound to be tested and were incubated for 20-48 hrs. MTS Reagent (20 μl/well) was added into each well & incubated for 0.5-4 hours at 37° C. in standard culture conditions. Absorbance at 490 nm was recorded using a plate reader.
# Results are shown in FIGS. 2 and 3 and Table 2 (where IC50 indicates the concentration of compound required to reduce cell viability to 50%).
# For the MTS Assay, the result indicates the concentration of compound required to reduce cell viability to 50%.
row,SMILES,Anti-tumour activity in MTS cell viability assay
1,Cc1cnc(NC(=O)COc2ccc(-c3cnc4cnccn34)cn2)cc1C(F)(F)F [Example 3],potent anti-tumour activity
2,Cn1nc(NC(=O)COc2ccc(-c3cnc4ccccn34)cn2)cc1C(F)(F)F [Example 1],potent anti-tumour activity
3,Cc1ccc(NC(=O)COc2ccc(-c3cnc4ccccn34)cn2)cc1C(F)(F)F [Example 2],potent anti-tumour activity
